Results from patent US20030050283A1, “Composition for the treatment and/or prevention of macular degeneration, method for its manufacture, and its use for treating the eye” (priority 2001, published 2003).

Protein sequences, listed by entry. Tags and fused reporters are not part of them.
UniProt P00406, whole entry: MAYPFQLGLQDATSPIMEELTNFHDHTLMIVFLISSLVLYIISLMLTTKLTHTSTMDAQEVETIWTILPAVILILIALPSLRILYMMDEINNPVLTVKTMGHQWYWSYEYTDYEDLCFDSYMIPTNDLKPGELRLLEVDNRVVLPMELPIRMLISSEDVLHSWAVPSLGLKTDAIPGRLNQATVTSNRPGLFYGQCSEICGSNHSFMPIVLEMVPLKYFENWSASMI
UniProt P05505, whole entry: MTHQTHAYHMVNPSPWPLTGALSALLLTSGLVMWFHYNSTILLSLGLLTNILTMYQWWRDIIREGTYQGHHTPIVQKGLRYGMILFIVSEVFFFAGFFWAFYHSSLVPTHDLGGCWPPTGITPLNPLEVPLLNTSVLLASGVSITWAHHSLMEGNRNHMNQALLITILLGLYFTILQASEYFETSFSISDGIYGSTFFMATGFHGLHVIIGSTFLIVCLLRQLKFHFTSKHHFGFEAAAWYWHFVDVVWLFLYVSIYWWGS

Target: COX (Rattus norvegicus, UniProt P00406+P05503+P05505)
Test: Binding of [3H]-A2E to COX by co-precipitation
Settings: 20 min

CC1=C(/C=C/C(C)=C/C=C/C(C)=C/c2cc(/C=C/C=C(C)/C=C/C3=C(C)CCCC3(C)C)cc[n+]2CCO)C(C)(C)CCC1 [A2E, N-retinyl-N-retinylidene ethanolamine]
Molecules A2E/molecules protein (COX + CL, darkness): 1 and 1.1 +/− 1.3 (n = 3)
Molecules A2E/molecules protein (COX, darkness, [3H]-A2E 40 μM): 17 and 17.0 +/− 0.5 (n = 4)
Molecules A2E/molecules protein (COX, exposure to light, [3H]-A2E 40 μM): 13 and 12,8 +/− 4,7 (n = 4)

Some entries of the source have several records that differ or are many. This list holds those alone. There may be further records. The records of an entry read as repeated measurements on other runs, samples or individuals.
